The test in a line: qHTS Assay for Lipid Storage Modulators in Drosophila S3 Cells.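 As to cell number change: cells counted by Cell Tracker Red CMTPX staining in the red channel.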 To be noted: BODIPY lipid droplet fluorescence, 18-24 h; for cell number change: measured here: cell count max response, cells fed with added oleic acid. A digest of the protocol:
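Laser-scanning cytometry quantifies lipid droplet accumulation (500–530 nm total intensity; droplet/cell object ratio) in oleic acid-fed (400 uM added) Drosophila S3 cells treated with a concentration series. 20 uM Triacsin C defined 100% inhibition.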
Background: Quantitative high-throughput screening tests each substance at several concentrations.

Where [1] appears, read: measured here: lipid fluorescence (Fed channel) AC50, cells fed with added oleic acid.
Where [2] appears, read: measured here: cell number channel AC50, cells fed with added oleic acid.

Each structure is given as a SMILES string. The list shows a part of the results. Further columns of the screen follow, without active or inactive calls. Most of these compounds were active or inconclusive in the main read-out, so they are no random draw. The note in brackets gives the kind of curve behind each potency; many fits are weak.

Among the data in PubChem BioAssay AID2685 (National Center for Advancing Translational Sciences (NCATS), 2010) are cell number change and AC50 values, retold here.

Take `CN(C)S(=O)(=O)c1cc(C(=O)Nc2ccccc2C(=O)NC2CC2)ccc1Cl`: the cell number change was -17.3%. The AC50 (in general, the midpoint of the concentration-response curve, whichever way the signal moves) under setting [1] is 6.51 µM [falling, single point].

For the molecule `COc1ccc(C(=O)NCCn2cc(SCC(=O)NCC3CCCO3)c3ccccc32)cc1` (stereo not given), the cell number change turned out to be 3.66%. Under setting [1], the AC50 is 10.3 µM [falling, single point].

As for `Cc1cc(CN(C)C(=O)CC2C(=O)NCCN2Cc2ccc(F)c(F)c2)on1` (stereo not given), the cell number change is 7.17%. Under setting [1], the concentration at half-maximal activity (AC50) was 3.26 µM [falling, partial curve].

For the molecule `Cc1cc(C)c(Cn2c(=O)n(CCCC(=O)NCc3ccco3)c(=O)c3sccc32)c(C)c1`, the cell number change was -34.5%. In addition, under setting [2], the AC50 is 14.6 µM [falling, single point]. Besides, the AC50 under setting [1] is 3.26 µM [rising, full curve].

With `COc1ccc(CNC(=S)Nc2ccccc2F)cc1`, the cell number change is -13%. Besides, the half-maximal activity concentration (AC50) under setting [1] is 5.8 µM [falling, full curve, poor fit].

As for `COc1ccc(S(=O)(=O)N2CCCC2)c(Cl)c1Cl`, the cell number change was -44.2%.

With `CCOC(=O)C1CCCN(Cc2ccccc2F)C1` (stereo not given), the cell number change is -2.46%. Under setting [1], the AC50 was 29.1 µM [rising, single point].

Turning to `CN1C(=O)c2ccc(C(=O)Nc3cccnc3)cc2C1=O`, the cell number change was 4.05%.

Turning to `Cc1ccc(C(=O)Nc2sc3c(c2C(=O)NCc2ccco2)CCCC3)cc1`, the cell number change is -22.2%.

For `Cc1ccnc(N/C=C(/NC(=O)c2ccccc2)C(=O)NN)n1`, the AC50 under setting [1] was 0.58 µM [rising, single point].

Consider `Cc1ccc(C(=O)C2CCN(CC(=O)NCc3ccc(F)cc3)CC2)cc1`, for which the cell number change is -17.9%.

For the molecule `CCOC(=O)C1CCN(S(=O)(=O)c2ccc3c(c2)CCCN3C(C)=O)CC1`, the AC50 under setting [2] was 6.51 µM [rising, single point].

As for `O=C(CNS(=O)(=O)c1ccc(Br)cc1Cl)OCC(=O)N1CCCC1=O`, the cell number change was -10.4%. Moreover, the AC50 under setting [1] was 7.31 µM [rising, partial curve].

Take `CC/C(=N\NC(=O)c1nnn(-c2nonc2N)c1-c1cccc(OC)c1)c1ccc(C)cc1`: the cell number change was 21.2%. Besides, the AC50 under setting [1] was 23.1 µM [rising, single point].

For the molecule `Cc1ccccc1OC(C)c1nc(-c2ccccc2)no1` (stereo not given), the cell number change was 119%. Also, the AC50 under setting [2] is 18.4 µM [rising, partial curve].

Consider `NC(=O)CSc1nnc(CSc2ncccn2)n1-c1ccccc1`, for which the cell number change was -13.7%. Also, the half-maximal activity concentration (AC50) under setting [1] is 0.411 µM [falling, full curve].

On to `COc1ccc(C(CC(=O)O)NC(=O)C(c2ccccc2)c2ccccc2)cc1` (stereo not given), for which the cell number change turned out to be 42.3%. Moreover, the AC50 under setting [2] is 7.31 µM [rising, partial curve, poor fit].

Turning to `COc1ccc(N(CC(=O)NC2CC3CCC2C3)S(=O)(=O)c2ccccc2)cc1Cl` (stereo not given), the cell number change was -8.38%.

For the molecule `CC(C)(NC(=O)NC(CO)c1ccccc1)c1cccc(C(C)(C)NC(=O)NC(CO)c2ccccc2)c1` (stereo not given), the cell number change is 12.2%. Moreover, under setting [1], the half-maximal activity concentration (AC50) was 0.231 µM [rising, full curve, poor fit].

Turning to `Cc1ccc(S(=O)(=O)N2CCCCC2)cc1NC(=O)c1ccc(Br)o1`, the cell number change was 10.8%. Under setting [2], the AC50 was 0.058 µM [rising, full curve, poor fit]. In addition, under setting [1], the AC50 is 0.259 µM [rising, partial curve].

Consider `Cc1c(NC(=O)CSc2nc3ccc(Cl)cc3[nH]2)c(=O)n(-c2ccccc2)n1C`, for which the cell number change amounted to 42.3%. In addition, under setting [2], the AC50 is 14.6 µM [rising, single point].

Regarding `[O-]/[N+](=C\c1ccccc1)c1ccc(Br)cc1`, the cell number change was -38.8%. Also, the AC50 under setting [2] is 29.1 µM [falling, single point]. For the same molecule, the AC50 under setting [1] was 13 µM [falling, partial curve, poor fit].

In the case of `Cc1cccc(N(C)Cc2nnc(-c3cccc(Br)c3)o2)c1`, the cell number change worked out at 19.4%. Also, the AC50 under setting [1] was 23.1 µM [falling, single point].

As to `CCN(CC(=O)Nc1ccc(OC)cc1)C(=O)c1cc2c(s1)CCCCC2`, the cell number change is 2.14%. For the same molecule, the AC50 under setting [1] was 0.206 µM [rising, full curve, poor fit].

Take `O=C(CCc1ccccn1)N1CCCC(N2CCN(c3ccc(F)cc3)CC2)C1` (stereo not given): the cell number change is -9.94%. Under setting [1], the AC50 is 0.13 µM [rising, full curve].

Turning to `O=C(O)C(Cc1ccc(O)cc1)N1C(=O)c2ccccc2C1=O` (stereo not given), the cell number change was -6.16%. The AC50 under setting [1] is 4.61 µM [rising, single point].

As for `Cc1noc(C)c1COc1ccc(C(=O)OCC(=O)OC(C)(C)C)cc1`, the cell number change was -18.5%. Moreover, under setting [2], the AC50 was 0.259 µM [falling, full curve, poor fit].

Take `Clc1ccc(CNc2ccc(CNc3ncn[nH]3)cc2)cc1`: the cell number change was 78%. Under setting [2], the AC50 is 14.6 µM [rising, partial curve, poor fit]. In addition, the AC50 under setting [1] was 0.82 µM [falling, full curve, poor fit].

For the molecule `CC(c1ccccc1)N1C(=O)c2ccccc2C1(O)Cc1ccccc1` (stereo not given), the cell number change is -28.4%. Further, the concentration at half-maximal activity (AC50) under setting [1] is 20.6 µM [falling, single point].

For `Cc1nc(NC(=O)c2cncc(Br)c2)ccc1Br`, the cell number change was 29.3%.

Consider `Cc1ccc(NCCC(=O)c2cccs2)cc1`, for which the cell number change is 15.5%. Also, the AC50 under setting [1] is 13 µM [rising, partial curve, poor fit].

Turning to `CCOC(=O)C(=CNc1ccc(NC2=NCC(C)S2)cc1)C(=O)OCC` (stereo not given), the cell number change is 114%. In addition, the AC50 under setting [2] was 29.1 µM [rising, single point]. Besides, the AC50 under setting [1] was 16.4 µM [rising, partial curve, poor fit].

As to `O=C(NC(=S)Nc1cccc2ncccc12)c1cccs1`, the cell number change is 5.62%. In addition, under setting [1], the AC50 is 1.16 µM [rising, single point].

Turning to `CCCn1c(SCC(=O)Nc2c(C)cccc2C)nnc1C(C)C`, the cell number change was determined as 7.54%. Under setting [1], the AC50 was 0.00461 µM [falling, full curve, poor fit].

Turning to `CC1CCCCN1C(=O)COC(=O)c1cccc(NS(=O)(=O)c2ccccc2)c1` (stereo not given), the AC50 under setting [2] was 2.06 µM [falling, partial curve] and the AC50 under setting [1] was 2.91 µM [falling, partial curve].

As to `COc1ccc(CNC(=O)c2sc(=S)n(-c3ccccc3)c2N)cc1`, the cell number change stood at 8.42%. Also, the AC50 under setting [1] is 0.103 µM [rising, full curve, poor fit].

Turning to `O=C(CCS(=O)(=O)c1ccccc1)Nc1nncs1`, the cell number change was -0.435%. Under setting [1], the AC50 was 0.58 µM [falling, single point].

On to `COc1ccc(C(=O)NCC(c2ccco2)N(C)C)cc1S(=O)(=O)NCc1ccc(Cl)cc1` (stereo not given), for which the cell number change is 16.4%. In addition, the AC50 under setting [1] was 0.731 µM [rising, full curve, poor fit].

Turning to `O=c1[nH]c(/C=C/c2ccc(Cl)cc2Cl)c([N+](=O)[O-])c(=O)[nH]1`, the cell number change stood at 3.72%. The AC50 under setting [1] was 6.51 µM [falling, single point].

For `Cc1ccc(Nc2nc(N)nc(CSc3nnc(C)s3)n2)cc1`, the cell number change is 37.4%. In addition, under setting [2], the AC50 is 0.103 µM [rising, full curve, poor fit]. Besides, under setting [1], the AC50 is 5.8 µM [rising, partial curve, poor fit].

As for `Cc1cccc2c(N)c3c(nc12)CCCC3` (tested in a mixture with another compound), the cell number change was -42.2%. Further, the half-maximal activity concentration (AC50) under setting [2] was 16.4 µM [falling, single point]. Further, the AC50 under setting [1] is 29.1 µM [falling, single point].

Consider `O=C(NCc1ccc(F)c(F)c1)C1CCC(=O)N(CC2CCCCC2)C1` (stereo not given), for which the cell number change came out at 33.7%. The AC50 under setting [2] was 9.2 µM [rising, partial curve, poor fit]. The half-maximal activity concentration (AC50) under setting [1] was 29.1 µM [rising, single point].

Regarding `O=C(NC(=Nc1ccccc1)N1CCOCC1)Nc1ccccc1`, the cell number change is -24.9%. In addition, the AC50 under setting [2] was 0.259 µM [falling, full curve, poor fit]. For the same molecule, under setting [1], the AC50 was 0.58 µM [falling, full curve, poor fit].

On to `COc1cc(C(=O)Nc2ccccc2C(=O)Nc2ccccn2)cc(OC)c1OC`, for which the cell number change is -20.6%. Under setting [1], the AC50 is 3.66 µM [rising, single point].

As for `CCOC(=O)[C@@H]1[C@H]2COc3cc(OC)ccc3[C@H]2N2C(=O)N(c3ccc(F)cc3)C(=O)[C@@]12C`, the cell number change came out at 35.3%. In addition, under setting [2], the AC50 was 2.59 µM [rising, full curve]. In addition, the AC50 under setting [1] is 0.164 µM [rising, full curve, poor fit].

Consider `COc1ccc(C(=O)NC2CCSc3ccccc32)cc1F` (stereo not given), for which the cell number change is 27%. Under setting [1], the AC50 is 29.1 µM [falling, single point].

On to `CN(C(=O)c1ccc(Br)cc1)C1CCS(=O)(=O)C1` (stereo not given), for which the cell number change is -41.5%. For the same molecule, under setting [2], the half-maximal activity concentration (AC50) was 2.06 µM [falling, full curve].

`Cc1ccccc1-c1nc(CS(=O)(=O)CC(=O)NCc2ccc(F)cc2)c(C)o1`: the cell number change was 8.07%.

Turning to `Cc1cc(C)c(S(=O)(=O)N(C)CC(=O)NCc2ccccn2)c(C)c1`, the cell number change turned out to be 34.2%.

Turning to `Cc1ccccc1NC(=O)Cn1cnc2c(oc3nc4c(cc32)CCCC4)c1=O`, the cell number change is -15.3%. Also, the half-maximal activity concentration (AC50) under setting [1] is 18.4 µM [rising, partial curve].

On to `O=C(O)CCC(=O)c1cccc2ccccc12`, for which the cell number change worked out at 18.4%. For the same molecule, under setting [2], the concentration at half-maximal activity (AC50) is 0.164 µM [rising, full curve, poor fit]. Besides, the half-maximal activity concentration (AC50) under setting [1] is 0.116 µM [falling, full curve, poor fit].

Consider `COc1ccccc1NC(=O)c1sc2ncn(Cc3cccc4ccccc34)c(=O)c2c1C`, for which the cell number change was determined as 11%. The AC50 under setting [1] is 2.91 µM [rising, full curve].

For `Cc1[nH]n(-c2ccccc2)c(=O)c1/C=N/NC(=O)COc1ccccc1[N+](=O)[O-]`, the cell number change is -16.9%. Further, under setting [2], the AC50 was 3.66 µM [falling, single point]. Further, the AC50 under setting [1] was 0.206 µM [rising, full curve, poor fit].

`O=C(Nc1nc2ccccc2[nH]1)c1cccc(Br)c1`: the cell number change came to 10.1%. The AC50 under setting [1] was 6.51 µM [rising, single point].

`O=C(COc1cccc(Br)c1)N/N=C/C(=O)c1ccccc1`: the cell number change is -42.3%. Further, the AC50 under setting [2] was 29.1 µM [falling, single point].

For `Cc1cccc(-c2onc3ccc(C4(C)OCCO4)cc23)c1`, the AC50 under setting [1] is 11.6 µM [rising, partial curve].

With `COc1ccc(O[C@H]2C=C[C@@H](c3ccccc3)O[C@@H]2COC(=O)CCC(C)=NO[C@@H]2O[C@H](COC(C)=O)[C@@H](OC(C)=O)[C@H](OC(C)=O)[C@H]2OC(C)=O)cc1`, the cell number change is -13.2%. In addition, the AC50 under setting [1] is 6.51 µM [rising, full curve].
